2 molecules from publication PMC5671937 can be followed below.

By UniProt entry, the sequences of proteins in these tests, tags left out.
UniProt P06493: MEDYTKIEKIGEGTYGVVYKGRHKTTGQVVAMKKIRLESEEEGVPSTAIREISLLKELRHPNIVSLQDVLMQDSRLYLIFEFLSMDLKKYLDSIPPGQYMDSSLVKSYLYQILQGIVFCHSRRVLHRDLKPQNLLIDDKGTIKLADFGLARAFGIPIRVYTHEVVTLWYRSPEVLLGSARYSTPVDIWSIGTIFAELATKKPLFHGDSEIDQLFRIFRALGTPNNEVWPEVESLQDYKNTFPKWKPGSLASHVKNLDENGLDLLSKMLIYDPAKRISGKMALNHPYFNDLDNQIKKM

In assay [1] the target is T1, cell division cycle 25B (CDC25B) (human (endogenous in HeLa)) (UniProt P30305).
T1 sequence: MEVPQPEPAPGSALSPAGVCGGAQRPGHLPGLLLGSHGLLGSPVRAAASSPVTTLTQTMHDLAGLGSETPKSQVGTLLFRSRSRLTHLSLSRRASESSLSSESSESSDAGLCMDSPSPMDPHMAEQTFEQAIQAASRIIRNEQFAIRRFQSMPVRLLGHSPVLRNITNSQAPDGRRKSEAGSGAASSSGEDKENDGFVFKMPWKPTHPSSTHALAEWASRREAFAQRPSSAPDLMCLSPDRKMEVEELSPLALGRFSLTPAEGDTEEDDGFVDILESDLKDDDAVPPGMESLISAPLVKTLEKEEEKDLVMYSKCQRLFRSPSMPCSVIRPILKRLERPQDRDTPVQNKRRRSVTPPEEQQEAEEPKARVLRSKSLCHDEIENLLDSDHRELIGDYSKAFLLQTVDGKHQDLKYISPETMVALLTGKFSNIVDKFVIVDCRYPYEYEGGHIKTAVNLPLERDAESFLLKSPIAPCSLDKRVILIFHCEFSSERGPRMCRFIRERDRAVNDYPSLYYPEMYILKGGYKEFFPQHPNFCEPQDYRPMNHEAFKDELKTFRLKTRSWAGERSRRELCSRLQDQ
Nature of the assay: co-IP; HeLa cells transfected with KCTD12 wild-type or S243A mutant plasmid (1 μg, 24 h); lysate immunoprecipitated, immunoblot. In general terms: In western blotting, separated proteins are transferred to a membrane and probed.

The target in assay [2] is cyclin-dependent kinase 1 (CDK1) (human (endogenous in HeLa)) (UniProt P06493). The description is as above.
The target is the same in assay [3]. Nature of the assay: co-IP; HeLa cells synchronized to M phase, whole-cell lysate, primary antibody overnight at 4 °C, protein A/G Sepharose beads, immunoblot; in some panels cells transfected with wild-type or S243A KCTD12 plasmid (Figure 7c) or treated with DMSO or VX-680 0.5 μM, 24 h (Figure 7b, d).

Results are given in words; binding and its absence hold for the method and conditions named. Binding seen in cells or lysates may run through a third protein. Some entries that bind do so weakly or less than the wild type. For part of these data: Sequences can lack the tags named with a protein.

B1: Flag-KCTD12 S243A mutant (protein, UniProt Q96CX2 1-325)
chain: MALADSTRGLPNGGGGGGGSGSSSSSAEPPLFPDIVELNVGGQVYVTRRCTVVSVPDSLLWRMFTQQQPQELARDSKGRFFLDRDGFLFRYILDYLRDLQLVLPDYFPERSRLQREAEYFELPELVRRLGAPQQPGPGPPPSRRGVHKEGSLGDELLPLGYSEPEQQEGASAGAPSPTLELASRSPSGGAAGPLLTPSQSLDGSRRSGYITIGYRGSYTIGRDAQADAKFRRVARITVCGKTALAKEVFGDTLNESRDPDRPPERYTSRYYLKFNFLEQAFDKLSESGFHMVACSSTGTCAFASSTDQSEDKIWTSYTEYVFCRE
Turning to B1, the binding entry is given as “binds” in assay [1] and “no binding” in assay [2].

B2: cell division cycle 25B (CDC25B) (enzyme, UniProt P30305 1-580)
chain: MEVPQPEPAPGSALSPAGVCGGAQRPGHLPGLLLGSHGLLGSPVRAAASSPVTTLTQTMHDLAGLGSETPKSQVGTLLFRSRSRLTHLSLSRRASESSLSSESSESSDAGLCMDSPSPMDPHMAEQTFEQAIQAASRIIRNEQFAIRRFQSMPVRLLGHSPVLRNITNSQAPDGRRKSEAGSGAASSSGEDKENDGFVFKMPWKPTHPSSTHALAEWASRREAFAQRPSSAPDLMCLSPDRKMEVEELSPLALGRFSLTPAEGDTEEDDGFVDILESDLKDDDAVPPGMESLISAPLVKTLEKEEEKDLVMYSKCQRLFRSPSMPCSVIRPILKRLERPQDRDTPVQNKRRRSVTPPEEQQEAEEPKARVLRSKSLCHDEIENLLDSDHRELIGDYSKAFLLQTVDGKHQDLKYISPETMVALLTGKFSNIVDKFVIVDCRYPYEYEGGHIKTAVNLPLERDAESFLLKSPIAPCSLDKRVILIFHCEFSSERGPRMCRFIRERDRAVNDYPSLYYPEMYILKGGYKEFFPQHPNFCEPQDYRPMNHEAFKDELKTFRLKTRSWAGERSRRELCSRLQDQ
Turning to B2, the binding entry in assay [3] is recorded as “binds”.
